In PubChem BioAssay AID1347076 (National Center for Advancing Translational Sciences (NCATS), 2019):
The whole screen tested about 400,000 compounds, of which about 13,000 (3.2%) were called active. The shares of active, inactive and inconclusive entries below differ from those in the screen. The call rests on the fitted dose curve; in most records, active means well fitted cell-killing curve with a large enough effect; inconclusive means small, poorly fitted or top-dose-only effect, or effect the other way; inactive means flat fitted curve, though single readings scatter. Potencies beside an inconclusive call are fits to weak or partial responses and may not hold up.

Experiment: qHTS assay for MDR1-selective chemotherapeutics: Primary screen using the drug-selected MDR subline cells KB-V1; further: nearly all actives have a fitted effect of over 60% in size
Settings: KB-V1 MDR cells viability, CellTiter-Glo, 72 h; activity change, negative = cytotoxicity: at 46.1 µM (top of the series)
Outline: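 KB-V1, DMEM (no phenol red) + 10% FBS; cpd pin-transferred, titration series; 72 h, 37 degrees C; CellTiter-Glo, luminescence. Data normalized, curve-fit.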
On the % scale 0 is the no-effect control and ±100 the full control effect; potency means the concentration at half of the fitted maximal effect.

Structure (SMILES) | activity change, negative = cytotoxicity | Potency
COc1cc2nc(SCC(=O)Nc3c(C)cc(C)cc3C)n3nc(CCn4c(C)nc5ccccc54)nc3c2cc1OC | inactive: 5.66% | 
CCOc1ccc(NCc2nc3ccccc3n2CCOc2ccccc2)cc1 |  | inconclusive: 1.64 µM [cytotoxic, full curve, poor fit]
CCCCCCCCCCCCN1[C@@H](CC(C)=O)c2cc(C(F)(F)F)ccc2S1(=O)=O |  | inconclusive: 0.206 µM [rising, full curve, poor fit]
Cc1nn(Cc2c(Cl)cccc2Cl)c(C)c1NC(=O)CCCn1nc([N+](=O)[O-])c(Cl)c1C |  | inconclusive: 6.51 µM [cytotoxic, partial curve]
FC(F)(F)c1ccc(NCc2ccccn2)nc1 | inactive: 19.2% | 
O=C(Nc1ccccc1OC(=O)c1ccc(Cl)cc1)c1ccc(Cl)cc1 |  | inconclusive: 29.1 µM [cytotoxic, single point]
Cc1ccc(Oc2nc3ccccn3c(=O)c2/C=C(\C#N)C(=O)NC2CCS(=O)(=O)C2)cc1 (stereo not given) | inactive: 7.77% | 
COCc1cc(C)nc2sc(C(=O)OC(C)C)c(N)c12 |  | inconclusive: 20.6 µM [cytotoxic, single point]
COc1cccc(C(=O)NCC2CCN(c3ccc(S(=O)(=O)N4CCOCC4)cc3)CC2)c1 |  | inconclusive: 5.8 µM [cytotoxic, partial curve]
Cc1c(NC(=O)Nc2ccc(Br)cc2F)sc2nc3n(c(=O)c12)CCC(C)CC3 (stereo not given) | inactive: 14.3% | 
COc1ccccc1CNC(=O)CCn1c(=O)c2ccccc2n(CC(=O)Nc2ccc(C)cc2Cl)c1=O | inactive: -17.9% | 
CCn1c2ccccc2c2nnc(SCc3ccc(C(=O)OC)o3)nc21 |  | inconclusive: 23.1 µM [cytotoxic, single point]
O=C(Nc1nccs1)[C@@H]1CC=C[C@@H]2CCN(C3CCCCC3)C(=O)[C@@H]21 | inactive: -6.69% | 
CCOC(=O)C(=C1Nc2ccccc2N1)n1c(-c2cnccn2)nc2ccccc21 |  | inconclusive: 13 µM [cytotoxic, partial curve, poor fit]
Cc1cc(-c2nc3cc(F)ccc3s2)ccc1N |  | active: 18.4 µM
Cc1csc(NC(=O)c2ccc3ccccc3n2)n1 |  | inconclusive: 2.91 µM [cytotoxic, partial curve]
CCOC(=O)N1CCN(S(=O)(=O)c2ccc(C(=O)Nc3sc4c(c3C#N)CCC4)cc2)CC1 |  | inconclusive: 1.3 µM [cytotoxic, full curve]
O=C(CCNS(=O)(=O)c1ccc(Br)s1)NC1CCCC1 |  | inconclusive: 29.1 µM [cytotoxic, single point]
CCc1nc(SCC(=O)Nc2nnc(CC)s2)c2c(=O)n(C)c(=O)n(C)c2n1 | inactive: -7.27% | 
O=C(NCCC1=CCCCC1)c1ccc2c(c1)N(Cc1ccccc1)C(=O)CS2 |  | inconclusive: 16.4 µM [cytotoxic, single point]
O=C(Nc1ccccc1Br)c1ccccc1-c1ccccc1 |  | inconclusive: 4.11 µM [cytotoxic, full curve]
COC(=O)/C=C/c1ccsc1NC(C)=O | inactive: -9.83% | 
Cc1ccc(S(=O)(=O)Nc2cc(C)cc(CCNC=O)c2C)cc1 |  | active: 18.4 µM
COc1ccc(CCN(Cc2nc3ccccc3c(=O)[nH]2)C(=O)C2CC2)cc1 |  | inconclusive: 29.1 µM [cytotoxic, single point]

Structure (SMILES) | activity change, negative = cytotoxicity | Potency
CCOC(=O)c1ccc(NC(=O)/C(C#N)=C/c2ccc(OC)cc2)cc1 | inactive: 11.8% | 
COc1ccccc1-n1ccnc(SCC(=O)NCc2ccccc2Cl)c1=O |  | active: 20.6 µM
O=C(NCc1ccccn1)C1CC(c2ccc(Cl)c(Cl)c2)=NO1 (stereo not given) |  | inconclusive: 29.1 µM [cytotoxic, single point]
O=S(=O)(c1ccccc1C(F)(F)F)N1CCC(n2cnc3ccccc32)CC1 |  | active: 9.2 µM
COc1ccccc1NC(=O)Cc1noc(CSc2nnc(C)n2C)n1 | inactive: 13.7% | 
O=C(C1=C(O)C(=O)N(CC2CCCO2)C1c1cccc(Cl)c1)c1ccco1 (stereo not given) |  | inconclusive: 29.1 µM [rising, single point]
CN(CC(=O)N1CCc2ccccc21)S(=O)(=O)c1cccs1 |  | inconclusive: 29.1 µM [cytotoxic, partial curve, poor fit]
COCCNC(=O)C(OC(=O)CC1Sc2ccccc2NC1=O)c1ccccc1 (stereo not given) |  | inconclusive: 25.9 µM [cytotoxic, single point]
Cc1ccc(S(=O)(=O)N(CCCN(C)C)Cc2ccc3c(c2)OCO3)cc1 |  | inconclusive: 32.6 µM [cytotoxic, single point]
COc1ccc(C2c3c(ncn(CCN4CCOCC4)c3=N)Oc3ccc4ccccc4c32)cc1OC (stereo not given) |  | active: 23.1 µM
CCOc1ccc2nc(N3CCCC(C(=O)NCC4CCCO4)C3)sc2c1 (stereo not given) |  | inconclusive: 8.2 µM [cytotoxic, partial curve]
CC1CCCCC1NC(=O)CN1C(=O)NC(C)(c2ccc(OC(F)F)cc2)C1=O (stereo not given) |  | inconclusive: 14.6 µM [cytotoxic, partial curve, poor fit]
CC(=O)N1N=C(c2ccncc2)OC1(Cc1ccccc1)Cc1ccccc1 |  | inconclusive: 9.2 µM [cytotoxic, partial curve, poor fit]
Cc1cccc2cc(CN(CCN(C)C)C(=S)Nc3ccccc3)c(=O)[nH]c12 |  | active: 23.1 µM
COc1ccc(C(=O)N/C(=C\c2cn(C)c3ccccc23)C(=O)OCC(C)C)cc1 | inactive: -7.18% | 
COc1cccc(Cn2c(=O)c3ccccc3n3nc(C)cc23)c1 |  | active: 20.6 µM
COc1cc(/C=C2/C(=O)ON=C2C)ccc1OCc1ccccc1F |  | inconclusive: 29.1 µM [cytotoxic, single point]
COc1cccc(CN(C(=O)/C=C/c2ccco2)C2CCS(=O)(=O)C2)c1 (stereo not given) | inactive: -4.41% | 
O=C(CN1C(=O)c2ccc([N+](=O)[O-])cc2C1=O)Nc1nnc(C2CC2)s1 |  | inconclusive: 29.1 µM [cytotoxic, partial curve, poor fit]
COc1ccc(CNCC(=O)Nc2ccccc2-n2cccc2)cc1 |  | inconclusive: 20.6 µM [cytotoxic, single point]
O=C(CCCCn1c(=O)c2ccccc2n(Cc2ccc(F)cc2)c1=O)NCc1ccco1 |  | active: 5.8 µM
CCN(C(=O)C1CSC2(C)CCC(=O)N12)c1nc2c(C)cccc2s1 (stereo not given) |  | inconclusive: 2.06 µM [cytotoxic, full curve]
O=C1CCC(=O)N1OCCOc1ccccc1 |  | inconclusive: 23.1 µM [cytotoxic, partial curve, poor fit]
COc1cc(OC)c(C(=O)C=Cc2ccc(OC)c(OC)c2)c(OC)c1 |  | inconclusive: 20.6 µM [cytotoxic, single point]

Structure (SMILES) | activity change, negative = cytotoxicity | Potency
COc1cc(C(=O)NNC(=O)CSc2nnc3ccccn23)cc(OC)c1OC |  | inconclusive: 29.1 µM [rising, single point]
Cc1ccccc1N(C(=O)CCC(=O)Nc1ccccn1)C(C(=O)NC(C)C)c1ccc(F)cc1 (stereo not given) |  | inconclusive: 7.31 µM [cytotoxic, partial curve]
FC(F)(F)c1cc(CO[C@@H]2CCCN[C@@H]2c2ccccc2)cc(C(F)(F)F)c1 | inactive: -29.9% | 
CCCn1c(C(C)Nc2nc(C)cs2)nc2cc(Cl)c(Cl)cc21 (stereo not given) | inactive: 4.22% | 
CCOC(=O)c1cnn(Cc2ccccc2Cl)c1N |  | inconclusive: 29.1 µM [cytotoxic, partial curve, poor fit]
O=C(Nc1ccccc1)C1Cc2c(-c3cccc(F)c3)ccnc2O1 (stereo not given) | inactive: -6.52% | 
CCCCn1c(N)c(N(CC(C)C)C(=O)C2CCN(S(=O)(=O)c3ccc(C)c(C)c3)CC2)c(=O)[nH]c1=O |  | inconclusive: 18.4 µM [rising, partial curve]
COc1ccccc1N1CCN(C(=O)c2ccc(S(=O)(=O)N3CCCCC3)cc2)CC1 |  | inconclusive: 7.31 µM [cytotoxic, partial curve]
CC(C)(C)OC(=O)NCCCNc1ncnc2ccc(-c3ccc4c(c3)OCO4)cc12 |  | inconclusive: 29.1 µM [cytotoxic, single point]
Cc1ccc(-c2nnc(N3CCN(C(=O)COc4ccccc4)CC3)c3ccccc23)cc1 |  | active: 2.59 µM
COc1ccc(OC)c(NC(=O)c2cc(-c3cc(C)cc(C)c3O)n[nH]2)c1 |  | inconclusive: 13 µM [cytotoxic, single point]
COc1ccc(C(=O)NC(=S)NCc2cccnc2)cc1Cl |  | inconclusive: 2.06 µM [cytotoxic, full curve]
CC(C)c1ccccc1NC(=S)NCc1nc2ccccc2[nH]1 |  | inconclusive: 18.4 µM [cytotoxic, partial curve, poor fit]
CCc1cccc(-n2c(C)nc3c(cnn3-c3ccc(C)c(C)c3)c2=O)c1 | inactive: -37% | 
COc1ccc2[nH]c3c(=O)n(CCCCCC(=O)NCCC(C)C)c(=S)[nH]c3c2c1 |  | inconclusive: 3.26 µM [rising, full curve, poor fit]
O=C(Nc1nc2ccccc2[nH]1)c1ccccc1 |  | inconclusive: 16.4 µM [cytotoxic, single point]
Cc1ccc(-n2c(C)cc(/C=N/NC(=O)CC3(C)OCCO3)c2C)c(C)c1 | inactive: -1.21% | 
Cc1ccc(NC(=O)c2c(C)noc2-c2snnc2C)cc1 |  | inconclusive: 20.6 µM [cytotoxic, single point]
O=C(NC(=S)Nc1cccnc1)c1cc2ccccc2o1 | inactive: 0.672% | 
CC1CCN(c2nc3ccccn3c(=O)c2C=O)CC1 | inactive: 17.6% | 
Cc1cc(C(O)c2ncc(-c3ccccc3F)[nH]2)ccc1F (stereo not given) | inactive: 1.57% | 
COc1ccc(/C=N/NC(=O)Cc2n[nH]c(=O)[nH]c2=O)cc1 |  | inconclusive: 18.4 µM [rising, single point]

Ordered by SMILES length (ascending): some entries from above.
Structure (SMILES) | activity change, negative = cytotoxicity | Potency
O=C(NC(=S)Nc1cccnc1)c1cc2ccccc2o1 | inactive: 0.672% | 
CC(C)c1ccccc1NC(=S)NCc1nc2ccccc2[nH]1 |  | inconclusive: 18.4 µM [cytotoxic, partial curve, poor fit]
COc1cc(C(=O)NNC(=O)CSc2nnc3ccccn23)cc(OC)c1OC |  | inconclusive: 29.1 µM [rising, single point]
Cc1ccc(-c2nnc(N3CCN(C(=O)COc4ccccc4)CC3)c3ccccc23)cc1 |  | active: 2.59 µM
CCCCn1c(N)c(N(CC(C)C)C(=O)C2CCN(S(=O)(=O)c3ccc(C)c(C)c3)CC2)c(=O)[nH]c1=O |  | inconclusive: 18.4 µM [rising, partial curve]
